PubChem BioAssay AID1159578 – Peter MacCallum Cancer Centre, 2015
This is a random part of about 18,000 reagents. About 1,030 of all reagents (5.7%) were called active. 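Inactive calls also include pools with fewer than 3300 nuclei, whose migration was not assessed.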 Raw values are not corrected between plates. Further read-outs or replicates are left out here.

Aim: 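siRNA pools altering how lymphatic endothelial cells close a scratch wound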 (primary screen)
Cells: human lymphatic endothelial cells
Reagent: siRNA pool against human genes, 40 nM
Timing: 48 h after transfection
Detection: 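High-content imaging of dye-stained cells in a scratch assay measures filled wound area and nuclei per well; duplicate means given as ratio to mock and robust z-score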
Scale: migration robust z-score: higher = faster migration into the scratch; nuclei per well: higher = more cells in the well
Active means: 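Migration changed when robust z exceeds 2 or falls below -2 and mean nuclei number is at least 3300; otherwise not called changed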
Meaning of the calls: active = migration changed; inactive = no migration change, or too few cells

gene symbol | migration robust z-score | nuclei per well, duplicate mean | Outcome
UTP14C (GeneID 9724) | -0.5 | 5634 | inactive
C1orf162 (GeneID 128346) | -1.52 | 4906 | inactive
PCDHGA6 (GeneID 56109) | -3.54 | 4376 | active
CSF1R (GeneID 1436) | -2.9 | 2323 | inactive
PIK3CD (GeneID 5293) | -1.09 | 6306 | inactive
ACTG1 (GeneID 71) | 0.1 | 4932 | inactive
H4C9 (GeneID 8294) | -1.38 | 5232 | inactive
DENND2C (GeneID 163259) | 0.29 | 6363 | inactive
ATIC (GeneID 471) | 1.17 | 5930 | inactive
LMX1A (GeneID 4009) | -0.34 | 4740 | inactive
SCLY (GeneID 51540) | 1.86 | 4798 | inactive
TPP2 (GeneID 7174) | -0.05 | 6479 | inactive
PDPN (GeneID 10630) | 1.01 | 7020 | inactive
AKT1 (GeneID 207) | 0.96 | 5148 | inactive
NUDT17 (GeneID 200035) | -1.31 | 7219 | inactive
GGH (GeneID 8836) | -0.26 | 5218 | inactive
SEMA6D (GeneID 80031) | 0.84 | 6438 | inactive
REG4 (GeneID 83998) | -0.38 | 6113 | inactive
C9orf153 (GeneID 389766) | 0.18 | 6141 | inactive
EPHB2 (GeneID 2048) | -0.94 | 5502 | inactive
PISD (GeneID 23761) | -1.36 | 4210 | inactive
CST9 (GeneID 128822) | -1.99 | 5206 | inactive
CTDSP2 (GeneID 10106) | -1.27 | 5514 | inactive
KAZALD1 (GeneID 81621) | 0.66 | 6350 | inactive
FKBP1A (GeneID 2280) | -1.22 | 5498 | inactive
SNX11 (GeneID 29916) | 2.09 | 6203 | active
AKR1C4 (GeneID 1109) | 0.1 | 7166 | inactive
CYP11B2 (GeneID 1585) | -0.78 | 5408 | inactive
CHRNB1 (GeneID 1140) | 0.34 | 5589 | inactive
CACNA2D3 (GeneID 55799) | -0.57 | 5610 | inactive
GBP2 (GeneID 2634) | -0.57 | 6178 | inactive
PXT1 (GeneID 222659) | -1.2 | 4955 | inactive
FAXC (GeneID 84553) | -1.77 | 5328 | inactive
CNGA4 (GeneID 1262) | -1.09 | 5581 | inactive
POM121 (GeneID 9883) | 0.22 | 3565 | inactive
COG4 (GeneID 25839) | 0.64 | 5231 | inactive
NUDT18 (GeneID 79873) | -0.75 | 5660 | inactive
C17orf67 (GeneID 339210) | -0.84 | 6220 | inactive
CYP51A1 (GeneID 1595) | -1.12 | 4804 | inactive
AGTR1 (GeneID 185) | 0.86 | 6662 | inactive
SCNM1 (GeneID 79005) | -0.46 | 5488 | inactive
AZGP1 (GeneID 563) | -1.14 | 5368 | inactive
NSMF (GeneID 26012) | -0.86 | 5806 | inactive
TGS1 (GeneID 96764) | 0.6 | 6614 | inactive
TRPC5 (GeneID 7224) | 0.21 | 5492 | inactive
DLST (GeneID 1743) | 0.39 | 6306 | inactive
GPKOW (GeneID 27238) | 0.4 | 5909 | inactive
TLL1 (GeneID 7092) | 0.72 | 4037 | inactive
SCGB1D1 (GeneID 10648) | 0.58 | 5188 | inactive
SLC22A17 (GeneID 51310) | -0.13 | 6989 | inactive
PSD (GeneID 5662) | -0.32 | 4732 | inactive
FKBP11 (GeneID 51303) | -0.91 | 5817 | inactive
WSB2 (GeneID 55884) | -0.55 | 5792 | inactive
PYCR3 (GeneID 65263) | -0.42 | 4561 | inactive
LHCGR (GeneID 3973) | 0.31 | 6280 | inactive
NDC1 (GeneID 55706) | 0.64 | 6296 | inactive
FHIP1B (GeneID 84067) | 1.62 | 6536 | inactive

Just “nuclei per well, duplicate mean”, for 5 of the entries above:
GBP2 (GeneID 2634)	6178
PXT1 (GeneID 222659)	4955
FAXC (GeneID 84553)	5328
CNGA4 (GeneID 1262)	5581
POM121 (GeneID 9883)	3565
